For the data set, the system named is Raji cells. The experiment in a line: Raji monolayer stability to repeated acoustic force ramps on PLL-coated chips. In kind it is cell-based.

Regarding `O=C(CCOCCOCCOCCOCCOCCOCCOCCOCCOCCC(=O)ON1C(=O)CCC1=O)ON1C(=O)CCC1=O` [BS(PEG)9], the “monolayer confluency after force application” value (Raji on PLL reacted with 10 mM crosslinker after seeding, 4 acoustic force ramps 1 to 1000 pN) was “not affected by the force”. Turning to `COCCOCCOCCOCCC(=O)ON1C(=O)CCC1=O` [MS(PEG)4], the “attachment of target cells / monolayer confluency after force application” value (PLL chip reacted with 5 mM reagent before seeding the Raji (negative control)) is “prevented the stable attachment of the target cells”.

The record behind these values is patent publication US20250084371A1, “CELL MONOLAYER BLOCKING AGENTS AND USES THEREOF” (LUMICKS CA HOLDING B.V., priority 2021, published 2025).
